Test results published in PubChem BioAssay AID652054 (National Center for Advancing Translational Sciences (NCATS), 2013).
The campaign covered roughly 360,000 compounds. About 9,100 (2.5%) were called active. Inconclusive means that the source gave no clear call. Such entries were picked first, then a sample of the others. Rule as the data show it: active = max response below about -50%; inconclusive = no clear call, values can overlap the other calls; inactive = above that.

Sequences of proteins named here, by UniProt entry; tags and fusion partners are left off.
UniProt P35462, whole entry, looked up: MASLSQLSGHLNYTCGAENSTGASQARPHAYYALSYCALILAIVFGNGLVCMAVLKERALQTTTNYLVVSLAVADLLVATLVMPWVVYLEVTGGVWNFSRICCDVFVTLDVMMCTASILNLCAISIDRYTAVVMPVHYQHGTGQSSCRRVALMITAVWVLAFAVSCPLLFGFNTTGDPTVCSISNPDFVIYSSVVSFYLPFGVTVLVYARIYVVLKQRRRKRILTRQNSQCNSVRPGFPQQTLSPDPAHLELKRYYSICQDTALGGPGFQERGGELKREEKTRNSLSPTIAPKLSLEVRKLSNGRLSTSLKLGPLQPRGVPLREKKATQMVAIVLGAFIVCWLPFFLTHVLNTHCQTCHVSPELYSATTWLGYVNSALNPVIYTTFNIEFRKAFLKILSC

target: D(3) dopamine receptor (Homo sapiens) (UniProt P35462); assay: qHTS of D3 Dopamine Receptor Antagonist: qHTS; conditions: D3R cells, DiscoveRx beta-arrestin luminescence, antagonist mode; stronger effect = lower value
How it was run: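 Cells plated overnight at 1500 cells/well, then exposed to library compounds with dopamine controls for 90 minutes at 37 degrees C. DiscoveRx reagent added for 30–60 minutes at room temperature; luminescence read, quantitative HTS format.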
% is scaled to controls: 0 for no effect and ±100 for the full control effect.

Structure (SMILES)	max response, negative = inhibition
C=CC[C@@H](CC(=O)N[C@H](CO)Cc1ccccc1)C(=O)N[C@H](COC(=O)[C@@H](CC=C)Cc1ccc(F)cc1)Cc1ccccc1	inconclusive: -36.1%
CC(=O)N1CCc2cc(S(=O)(=O)NCc3ccc(C)cc3)ccc21	inactive: 8.38%
C=CCc1c(OC)ccc2ccc(=O)oc12	active: -56.6%
O=C(Nc1ccc(F)cc1)C1CCN(S(=O)(=O)c2cccs2)CC1	inactive: -5.16%
O=C(NC1CCCCC1)C(c1ccccc1)N(Cc1ccc2c(c1)OCO2)C(=O)c1cnsn1 (stereo not given)	inconclusive: -30.4%
Cc1cccc(OCCCCNCc2ccccc2)c1	inconclusive: -41.9%
CC(CNC(=O)CCC(=O)N1CCOc2ccc(Cl)cc21)c1ccccc1 (stereo not given)	active: -50.1%
CC(C)(C)CC(=O)NC(=S)NCc1ccccc1	inactive: -13.1%
CCNC(=O)Nc1ccc2c(c1)c(=O)n(C)n2Cc1ccc(Cl)cc1	inconclusive: -45.6%
O=S(=O)(NCc1ccccc1)c1cccc2nonc12	inconclusive: -43.2%
COc1ccccc1NC(=S)NNC(=O)c1nn(C)cc1Cl	inconclusive: -36.4%
N#CC1=C2N=C(N)c3ccccc3N2C2=C(C(=O)CCC2)C1c1ccc(Cl)cc1 (stereo not given)	inconclusive: -31%
N#CCc1nc2ccc(S(=O)(=O)N3CCOCC3)cc2s1	inactive: -19.9%
C=CCC[C@@H](Cc1ccc(F)cc1)C(=O)OCCNC(=O)[C@@H](CC=C)CC(=O)N[C@H](CO)Cc1ccccc1	inconclusive: -31.4%
O=C1CC(c2ccco2)Cc2nc(N3CCc4ccccc4C3)ncc21 (stereo not given)	inconclusive: -32.8%
C=C(C)CN(CC)C(=O)CSc1ccc(S(=O)(=O)N2CCN(Cc3ccccc3)CC2)cn1	inconclusive: -34.8%
O=C(O)C1CC=CCC1C(=O)Nc1ccccc1 (stereo not given)	inconclusive: -41.6%
O=C(COC(=O)/C=C/c1cccc(C(F)(F)F)c1)NCc1ccco1	inactive: -0.63%
CC(NC(=O)C1CCCC1)c1ccc2c(c1)OCCO2 (stereo not given)	inconclusive: -37%
c1cncc(Nc2nc(-c3cccs3)cs2)c1	inconclusive: -33.5%
O=C(Nc1cccc2ccccc12)N(c1ccccc1)c1ccccc1	inconclusive: -34.1%
O=C(NC(c1ccc(F)cc1)c1ccc2ccccc2n1)C1CCN(Cc2cccc(C(F)(F)F)c2)CC1 (stereo not given)	active: -80.9%
Cc1cc(C(=O)CN2c3cccc4cccc(c34)S2(=O)=O)c(C)n1C	inactive: -10.1%
COc1cc2c3nnc(-c4ccccc4)c-3cn(Cc3ccccc3F)c2cc1OC	inactive: -3.98%
COCc1ccc(CN2CCCC(C(=O)Nc3ccccc3-c3ccc(OC)cc3)C2)o1 (stereo not given)	inconclusive: -33.2%
O=C(Nc1ccc(N2CCOCC2)cc1Cl)C1CCN(C(=O)OCc2ccccc2)CC1	inactive: 24%
COCC(=O)Nc1ccc(S(=O)(=O)Nc2cc(C)nc(C)n2)cc1	inconclusive: -31.1%
O=C(Cc1cccc(NC(=O)C2CCCN(C(=O)C3CCC3)C2)c1)Nc1cccc(C(=O)N2CCCCC2)c1 (stereo not given)	inconclusive: -36.6%

Structure (SMILES)	max response, negative = inhibition
CN1CCc2nc(SCc3ccc(Cl)cc3)c(C#N)c(-c3cccs3)c2C1	active: -60.2%
COc1cccc([C@@H]2CC=C(C(=O)O)[C@H](c3ccccc3)N2S(=O)(=O)c2ccc(C)cc2)c1	inconclusive: -46.5%
Cc1n[nH]c(=S)n1/N=C/c1ccccc1OCc1ccc(Cl)cc1	active: -50.6%
Cc1cc(OCC(=O)NCc2nc(-c3ccccc3)no2)c(C)cc1Br	inconclusive: -30.2%
C[C@H](CO)NC(=O)c1[nH]cnc1C(=O)Nc1ccc(CNC(=O)OC(C)(C)C)cc1	inactive: 6.26%
CCCCn1cnc2cc(NCc3cccc(OC)c3O)ccc21	inconclusive: -30.6%
Cc1cccc(-c2nnc(NC(=O)c3ccc(Cl)cc3)o2)c1	active: -96.9%
O=C(NNC(=O)c1ccccc1-n1cccc1)c1ccc(Cl)cc1Cl	inconclusive: -30.9%
COc1ccc(NC(=S)N2CCCC2)cc1OC	inconclusive: -32%
COc1cc(/C=N/n2c(-c3cc(C)[nH]n3)n[nH]c2=S)cc(OC)c1O	inconclusive: -41.8%
CN(C)CCOCCOc1ccc(Cl)cc1C(C)(C)C	inconclusive: -45.9%
CCOc1ccc(S(=O)(=O)N2CCOCC2)cc1NC(=O)CSCC(=O)Nc1cccc(C)c1	inactive: -20.8%
C=CCn1c(NCc2ccccc2)nc2ccccc21	inconclusive: -32%
Cc1ccc(C(=O)NNC2=Nc3cccc4cccc2c34)cc1	active: -73.6%
Cc1cccc(OCCCC(=O)Nc2ccc(S(N)(=O)=O)cc2)c1C	inactive: 19.3%
CCOc1cccc(/C=C/c2ccc3cccc(O)c3n2)c1O	active: -56%
CC1(C(=O)NCc2ccco2)Cc2c(-c3ccc(C(N)=O)cc3)ccnc2O1 (stereo not given)	inactive: 9.3%
CCOC(=O)c1c(/N=C/c2cc(OC)cc([N+](=O)[O-])c2O)sc(C)c1C	active: -71%
COc1ccc(-c2[nH]ncc2/C=N/NC(=O)c2ccc(Br)cc2)c(OC)c1	active: -65.5%
CCOc1ccc(CCN2C(=S)N([C@@H](CC(C)C)CN3CCCC3CN3C(=S)NC[C@@H]3Cc3ccccc3)C[C@@H]2CC(C)C)cc1 (stereo not given in full)	inconclusive: -49.3%
CCOc1ccc(S(=O)(=O)NN=C(C)c2cccnc2)cc1	inactive: -6.69%
Cn1c(NCc2ccccc2F)nc2cc(-c3cccc(Cl)c3)sc2c1=O	inactive: 24.9%
CC(C)(C)NC(=O)Cn1c(SCC(N)=O)nc2ccccc21	inconclusive: -40.4%
CCOC(=O)Nc1cc2c(c(N)n1)N=C(c1ccccc1)CN2	inconclusive: -30%
Cc1ccc(NS(=O)(=O)c2c(C)[nH]c(C)c2C(=O)N2CCCCC2)c(Cl)c1	inconclusive: -30.7%
O=C(Nc1ccc(Cl)c(Cl)c1)N1CC=C(c2ccccc2)CC1	inconclusive: -36.9%
O=[N+]([O-])c1cccc(/C=N\N2CCN(Cc3ccccc3Cl)CC2)c1	active: -77.9%

As a short view, 2 of the compounds above.
Structure (SMILES)	max response, negative = inhibition
CCOc1ccc(S(=O)(=O)N2CCOCC2)cc1NC(=O)CSCC(=O)Nc1cccc(C)c1	inactive: -20.8%
C=CCn1c(NCc2ccccc2)nc2ccccc21	inconclusive: -32%
